Reference: PubChem BioAssay AID624291 (National Center for Advancing Translational Sciences (NCATS), 2012)
The whole screen tested about 350,000 compounds, of which about 220 (0.063%) were called active. This list was built around the results that the source calls inconclusive (neither active nor inactive); the mix of calls is not that of the screen. The call rests on the fitted dose curve; in most records, active means well fitted activation curve with a large enough effect; inconclusive means small, poorly fitted or top-dose-only effect; inactive means no such curve, though single readings can be large or run the other way. A potency beside an inconclusive call is a rough fit, not a confirmed value.

Test: qHTS for Activators of Integrin-Mediated Alleviation for Muscular Dystrophy; further: nearly all actives have a fitted effect of over 60% in size;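 on activation: 100% = response of the positive control SU9516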
Details: alpha7betagal myoblasts, beta-gal FDG fluorescence, 48 h; activation: at 38.3 µM (top of the series)
Outline: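 alpha7betagal+/- myoblasts (passage 13, 250/well) treated 48 h at 37C with compounds at 1:260 dilution of DMSO stock. Lysed, then beta-galactosidase activity read as FDG fluorescence (ex 480/em 540) after 30 min, with pre-read for autofluorescence.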
Potency means the concentration at half of the fitted maximal effect.

SMILES	Potency	activation
COCCNC(=O)c1onc(CSc2ccncc2)c1C(=O)NCCOC	inconclusive: 10 µM [activator, partial curve]	–
COc1cc(S(=O)(=O)Nc2ccc3nc(C)sc3c2)ccc1NC(C)=O	inconclusive: 1 µM [activator, partial curve, poor fit]	–
O=C(CN1CCCC1)Nc1ccc(Oc2ccc(NC(=O)CN3CCCC3)cc2)cc1	inactive	–
O=C(CSc1nnc(C2CC2)n1Cc1ccco1)NCC(F)(F)F	inconclusive: 3.98 µM [activator, single point]	–
COC(=O)c1ccc(CNC(=O)c2ccc(OCC(=O)N3CCOCC3)c(OC)c2)cc1	inconclusive: 11.2 µM [activator, single point]	–
COc1cc(C(=O)NNC(=O)C2CCCC2)cc(OC)c1OC	inconclusive: 28.2 µM [activator, single point]	–
Nc1ccccc1C(=O)NNC(=O)C(=O)/C=C(\O)c1ccccc1	inactive	–
CC(=O)Nc1ccccc1C(=O)C(=O)Nc1ccc(F)c(Cl)c1	inconclusive: 2.82 µM [activator, single point]	–
CCOc1cccc(C=NCCc2ccc(OC)c(OC)c2)c1O	inconclusive: 28.2 µM [activator, single point]	–
Nc1nc(CN2CCN(c3ccccc3F)CC2)nc(N2CCCc3ccccc32)n1	inactive	–
COc1cc(OC)cc(C(=O)NNC(=S)Nc2ccccc2OC)c1	inconclusive: 3.16 µM [activator, single point]	–
COc1ccc(C2=NN(Cc3ccccc3)C3C(=O)NC(=O)C23)cc1 (centres undefined)	inconclusive: 28.2 µM [activator, single point]	–
Cc1ccccc1C(=O)NCC(=O)OCC(=O)NC(C)C1CC2CCC1C2 (centres undefined)	inconclusive: 1.26 µM [activator, partial curve, poor fit]	–
CCOC(=O)c1ccc(NC(=O)CSCC(=O)OCC(=O)c2ccccc2)cc1	inconclusive: 5.01 µM [activator, single point]	–
O=C(NC1CCCCC1)Sc1ccc(Cl)cc1	inactive	–
Cc1cccc(NC(=S)NNC(=O)c2csc(C(C)C)c2)c1	–	inactive: 13.5% [at 7.66 µM]
CC(NC(=O)c1ccc(CS(C)(=O)=O)cc1)c1ccc(-c2ccccc2)cc1 (centres undefined)	inconclusive: 5.01 µM [activator, single point]	–
O=C(O)CCNc1cc(N2CCN(C(=O)c3ccco3)CC2)c2noc3c2c1C(=O)c1ccccc1-3	inconclusive: 28.2 µM [activator, single point]	–
O=C(COc1ccccc1)Nc1ccc(CSc2ccccc2)cc1	inconclusive: 28.2 µM [activator, single point]	–
CCCCCCCCCC[n+]1cccc2c3ccccc3ccc21	–	inconclusive: -56% [activator]
COc1ccc(NC(=O)CN(C)CCOc2ccc(Cl)cc2)cc1OC	inactive	–
CC1CCc2c(sc(NC(=O)C3CCCO3)c2C#N)C1 (centres undefined)	inactive	–

SMILES	Potency	activation
O=C1/C(=C/c2ccncc2)SC(=S)N1Nc1ccccc1	inactive	–
COc1ccc(OC)c(CCNC(=O)CCc2nnc3ccc(N4CCCCC4)nn23)c1	inconclusive: 5.01 µM [activator, single point]	–
COc1ccc(-n2nc(C(=O)NCC(=O)NCCCN3CCOCC3)c3ccccc3c2=O)c(OC)c1	inconclusive: 2.51 µM [activator, single point]	–
CCOC(=O)Cc1csc(NC(=O)c2cc(OC)cc(OC)c2)n1	inconclusive: 12.6 µM [activator, partial curve, poor fit]	–
CSc1nsc(SCC(=O)Nc2ccc(O)c(C(=O)O)c2)n1	inconclusive: 5.01 µM [activator, single point]	–
COc1ccccc1NC(=O)c1c[nH]c2ccccc12	inconclusive: 28.2 µM [activator, single point]	–
Cc1ccc(NC(=S)NCc2ccc(F)cc2)c(C)c1	inconclusive: 12.6 µM [activator, single point]	–
Cc1ccc(NC(=O)CN2C(=O)S/C(=C/c3ccc(O)c([N+](=O)[O-])c3)C2=O)cc1C	inactive	–
CC(C)C[C@H]1CNC(=S)N1CC1CCN(CC2CCC(C(C)(C)C)CC2)CC1 (some centres undefined)	inactive	–
CN(C(=O)c1cc(S(=O)(=O)N2CCCCC2)c[nH]1)C1CCCCC1	inconclusive: 5.01 µM [activator, single point]	–
O=C(NCCN1CCOCC1)C12CC3CC(C1)CC(c1ccccc1)(C3)C2	inconclusive: 3.16 µM [activator, single point]	–
O=C(CCC(=O)NNC(=O)Nc1ccc(Cl)cc1)NCc1ccccc1	inactive	–
O=C(NCc1ccccc1)C(=O)NCC1OCCN1S(=O)(=O)c1ccc(Br)cc1 (centres undefined)	inconclusive: 1.78 µM [activator, partial curve, poor fit]	–
COc1ccc(COCC(O)CN2CC(C)OC(C)C2)cc1OC (centres undefined)	inconclusive: 28.2 µM [activator, single point]	–
COc1cccc(C(=O)Nc2c(F)cccc2F)c1	inconclusive: 8.91 µM [activator, partial curve]	–
C#CCn1c(=NC(=O)c2ccc(S(=O)(=O)N3CCc4ccccc4C3)cc2)sc2cc(S(N)(=O)=O)ccc21	inactive	–
CC1Cc2cc(S(=O)(=O)N3CCC(C(=O)Nc4ccccn4)CC3)ccc2N1C(=O)C1CCC1 (centres undefined)	inactive	–
COCCn1c(C)cc(C(=O)CSc2nnnn2C2CCCC2)c1C	inactive	–
CC1CCCCC1NC(=O)c1cc2c(=O)n3ccccc3nc2n1C (centres undefined)	inconclusive: 17.8 µM [activator, partial curve, poor fit]	–
O=C(CCNc1n[nH]c(=O)[nH]c1=O)N1CCCCC1	inconclusive: 1 µM [activator, full curve, poor fit]	–
Cc1cc2nc3c(c(C(F)(F)F)n2n1)CCCC3	inconclusive: 28.2 µM [activator, single point]	–
CCCC/C(O)=C1\C(=O)CCCC1=NCCc1c(C)[nH]c2ccccc12	inconclusive: 10 µM [activator, partial curve, poor fit]	–

Retrieved by compound from the entries so far, 3 records:
SMILES	Potency	activation
CSc1nsc(SCC(=O)Nc2ccc(O)c(C(=O)O)c2)n1	inconclusive: 5.01 µM [activator, single point]	–
O=C(NCc1ccccc1)C(=O)NCC1OCCN1S(=O)(=O)c1ccc(Br)cc1 (centres undefined)	inconclusive: 1.78 µM [activator, partial curve, poor fit]	–
CCOC(=O)c1ccc(NC(=O)CSCC(=O)OCC(=O)c2ccccc2)cc1	inconclusive: 5.01 µM [activator, single point]	–
